Measurements reported in article PMC3539332.

Assays:
[1] = biological target: T1, GST-μ1 (UniProt P35585); test: pull-down; glutathione beads bearing 1 μg GST-μ1; 0.5 μg purified MBP-Vangl2 cytosolic domain in 400 μl of 100 mM KCl, 20 mM Hepes pH 7.4, 5 mM MgCl2, 0.5% TX-100, 0.1 mg/ml BSA, 4°C, 90 min; immunoblot; both purified
T1 sequence: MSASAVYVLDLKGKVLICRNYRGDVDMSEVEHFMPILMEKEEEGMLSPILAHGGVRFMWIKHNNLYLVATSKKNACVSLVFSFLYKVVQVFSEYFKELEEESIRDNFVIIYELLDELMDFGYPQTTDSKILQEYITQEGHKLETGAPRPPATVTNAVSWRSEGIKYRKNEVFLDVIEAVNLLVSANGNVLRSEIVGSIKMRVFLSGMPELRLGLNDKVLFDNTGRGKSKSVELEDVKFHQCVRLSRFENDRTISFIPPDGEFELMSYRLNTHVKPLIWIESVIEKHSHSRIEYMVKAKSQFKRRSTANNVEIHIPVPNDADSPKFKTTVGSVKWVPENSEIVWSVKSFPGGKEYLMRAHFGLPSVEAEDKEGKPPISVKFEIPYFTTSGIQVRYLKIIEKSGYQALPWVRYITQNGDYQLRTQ

[2] = biological target: T2, GST-Arfrp1 (Q79L), dominant active form, GTPγS-loaded (UniProt Q13795); test: pull-down; GST-Arfrp1 on glutathione beads loaded with GDP (wt) or GTPγS (Q79L); bovine brain cytosol, 4°C overnight, 20 mM Hepes pH 7.4, 100 mM KCl, 5 mM MgCl2, 0.1% TX100; washed with 500 mM KCl; bound proteins by immunoblot; only the target purified
T2 sequence: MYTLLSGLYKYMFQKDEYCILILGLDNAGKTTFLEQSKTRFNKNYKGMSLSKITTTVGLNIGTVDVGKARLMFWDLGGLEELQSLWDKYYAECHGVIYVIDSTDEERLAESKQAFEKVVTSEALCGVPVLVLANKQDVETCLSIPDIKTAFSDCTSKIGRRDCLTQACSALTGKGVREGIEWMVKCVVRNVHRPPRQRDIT

## MBP-Vangl2 C-terminal domain wild type (domain or fragment)
[1]
  binding: binds

## γ1-adaptin
[2]
  binding: binds

Results are given in words; binding and its absence hold for the method and conditions named. Binding calls can cover weak binding; strength is not graded here. Tags and fused reporters may be left off the sequences shown. For some assays here: Binding seen in cells or lysates may run through a third protein.
